The source of these data is article doi:10.1101/858225.

Chains of the proteins cited; added tags and fusions are not shown.
UniProt Q68Y81, whole entry: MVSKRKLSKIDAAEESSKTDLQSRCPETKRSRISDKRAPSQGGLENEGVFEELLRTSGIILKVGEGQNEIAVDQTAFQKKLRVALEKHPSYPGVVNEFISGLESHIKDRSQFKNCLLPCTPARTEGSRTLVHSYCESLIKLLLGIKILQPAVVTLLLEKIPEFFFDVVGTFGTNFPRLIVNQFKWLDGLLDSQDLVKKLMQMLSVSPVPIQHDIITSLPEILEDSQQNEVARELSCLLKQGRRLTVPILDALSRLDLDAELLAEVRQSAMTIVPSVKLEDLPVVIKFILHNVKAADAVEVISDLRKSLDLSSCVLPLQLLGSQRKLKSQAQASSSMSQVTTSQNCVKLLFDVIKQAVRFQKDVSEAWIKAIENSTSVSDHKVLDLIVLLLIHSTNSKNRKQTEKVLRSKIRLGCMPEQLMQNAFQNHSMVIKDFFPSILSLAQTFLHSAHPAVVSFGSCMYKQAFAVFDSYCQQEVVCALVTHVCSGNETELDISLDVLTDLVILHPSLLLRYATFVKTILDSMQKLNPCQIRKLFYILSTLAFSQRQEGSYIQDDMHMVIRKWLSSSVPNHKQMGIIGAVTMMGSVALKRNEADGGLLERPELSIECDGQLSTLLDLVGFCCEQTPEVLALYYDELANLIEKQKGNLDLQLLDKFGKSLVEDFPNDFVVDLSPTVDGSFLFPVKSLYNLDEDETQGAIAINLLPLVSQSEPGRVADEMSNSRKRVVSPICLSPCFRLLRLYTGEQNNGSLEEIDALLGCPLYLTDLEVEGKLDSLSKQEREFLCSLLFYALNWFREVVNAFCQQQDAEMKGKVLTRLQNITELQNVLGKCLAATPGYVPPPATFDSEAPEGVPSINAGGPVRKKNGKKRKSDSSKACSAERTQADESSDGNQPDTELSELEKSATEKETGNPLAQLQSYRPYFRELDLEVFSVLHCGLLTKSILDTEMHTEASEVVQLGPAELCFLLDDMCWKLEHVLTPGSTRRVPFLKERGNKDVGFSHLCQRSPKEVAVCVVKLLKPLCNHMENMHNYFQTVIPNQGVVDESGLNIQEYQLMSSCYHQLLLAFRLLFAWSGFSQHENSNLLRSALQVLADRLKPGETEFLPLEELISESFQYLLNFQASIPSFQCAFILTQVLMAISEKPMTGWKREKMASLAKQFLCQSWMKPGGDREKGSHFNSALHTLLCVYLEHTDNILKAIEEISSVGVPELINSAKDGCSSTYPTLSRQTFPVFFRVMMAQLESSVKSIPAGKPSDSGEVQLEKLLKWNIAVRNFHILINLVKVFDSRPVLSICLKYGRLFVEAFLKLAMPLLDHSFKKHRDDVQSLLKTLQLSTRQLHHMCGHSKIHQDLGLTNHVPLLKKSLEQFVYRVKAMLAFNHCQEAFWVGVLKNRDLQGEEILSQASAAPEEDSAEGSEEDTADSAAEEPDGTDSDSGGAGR

These are yes or no findings as the source states them, for the method shown. Some binding calls cover weakened binding; strength is not graded here. Sequences can lack the tags named with a protein.

The target in assay [1] is Gallus gallus FANCD2 (untagged, from the co-expressed D2-I complex) (Gallus gallus) (UniProt Q68Y81). The experiment in a line: cryo-EM structure.
Assay [2] addresses His-tagged Gallus gallus FANCI (expressed alone) (Gallus gallus) (UniProt B0I564). As to the kind of experiment: SEC. (SEC sorts molecules by how far they enter the pores of the column.)

B1: Gallus gallus FANCI (untagged, from the co-expressed D2-I complex) (protein, UniProt B0I564 1-1338)
chain: MAQRILQLAAEGSPERLQEALQGLTEGELGDMVTRQALRGRETAALLKGIFKGSPCSQQSGVLRRLQVYKHCVSLVESGDLHVGKVSEIIGLLMLEARQLPGHALAELATLFVEVIKRGSLSNGKSLELFSTVLTALSNSKESLAYGKGELNGEEFKKQLINTLCSSKWDPQCVIHLANMFRDIPLSGEELQFVVEKVLRMFSKLDLQEIPPLVYQLLLLSAKGSKKTVLEGIISFFNQLDKRQKEEQRVPQSADLEVATVPLDQLRHVEGTVILHIVSAINLDQDIGEELIKHLKTEQQKDPGKALCPFSVSLLLSTAVKHRLQEQIFDFLKTSITRSCKDLQILQASKFLQDLCPQQYDVTAVILEVVKNSAFGWDHVTQGLVDLGFSLMESYEPKKSFGGKAAETNLGLSKMPAQQACKLGASILLETFKVHEPIRSDILEQVLNRVLTKAASPVSHFIDLLSNIVVSAPLVLQNSSSRVTETFDNLSFLPIDTVQGLLRAVQPLLKVSMSVRDSLILVLQKAIFSRQLDARKAAVAGFLLLLRNFKILGSLTSSQCSQAIGATQVQADVHACYNSAANEAFCLEILGSLRRCLSQQADVRLMLYEGFYDVLRRNSQLASSIMETLLSQIKQYYLPQQDLLPPLKLEGCIMAQGDQIFLQEPLAHLLCCIQHCLAWYKSTVHLCKGAEDEEEEEDVGFEQNFEEMLESVTRRMIKSELEDFELDKSADFSPSSGVGVKNNIYAIQVMGICEVLIEYNFKIGNFSKNKFEDVLGLFTCYNKLSEILKEKAGKNKSTLGNRIARSFLSMGFVSTLLTALFRDNAQSHEESLAVLRSSTEFMRYAVSVALQKVQQLEEMGQTDGPDGQNPEKMFQNLCKITRVLLWRYTSIPTAVEESGKKKGKSISLLCLEGLLRIFNTMQQLYAARIPQFLQALDITDGDAEEADINVTEKAAFQIRQFQRSLVNQLSSAEDDFNSKETQLLITILSTLSKLLDPGSQQFLQFLTWTVKICKENALEDLSCCKGLLTLLFSLHVLYKSPVSLLRELAQDIHACLGDIDQDVEIESRSHFAIVNVKTAAPTVCLLVLGQADKVLEEVDWLIKRLTILGSDTSEDSTQASNQTQALEKGVILQLGTLLTVFHELVQTALPAGSCVDSLLRSLSKTYAILTSLIKHYIQACRSTSNTVPGRLEKLVKLSGSHLTPQCYSFITYVQNIHSESLSFAEEKKKKKKEDETAVVSTVMAKVLRDTKPIPNLIFAIEQYEKFLIHLSKKSKVNLMQYMKLSTSRDFRINASMLDSVLQEQNTEDAENEPDNNQSGTAEQPDENQEPQKKRRRKK
On to B1, for which the binding entry in assay [1] was “binds”.

B2: His-tagged Gallus gallus FANCI (expressed alone) (protein, UniProt B0I564 1-1338)
chain: MAQRILQLAAEGSPERLQEALQGLTEGELGDMVTRQALRGRETAALLKGIFKGSPCSQQSGVLRRLQVYKHCVSLVESGDLHVGKVSEIIGLLMLEARQLPGHALAELATLFVEVIKRGSLSNGKSLELFSTVLTALSNSKESLAYGKGELNGEEFKKQLINTLCSSKWDPQCVIHLANMFRDIPLSGEELQFVVEKVLRMFSKLDLQEIPPLVYQLLLLSAKGSKKTVLEGIISFFNQLDKRQKEEQRVPQSADLEVATVPLDQLRHVEGTVILHIVSAINLDQDIGEELIKHLKTEQQKDPGKALCPFSVSLLLSTAVKHRLQEQIFDFLKTSITRSCKDLQILQASKFLQDLCPQQYDVTAVILEVVKNSAFGWDHVTQGLVDLGFSLMESYEPKKSFGGKAAETNLGLSKMPAQQACKLGASILLETFKVHEPIRSDILEQVLNRVLTKAASPVSHFIDLLSNIVVSAPLVLQNSSSRVTETFDNLSFLPIDTVQGLLRAVQPLLKVSMSVRDSLILVLQKAIFSRQLDARKAAVAGFLLLLRNFKILGSLTSSQCSQAIGATQVQADVHACYNSAANEAFCLEILGSLRRCLSQQADVRLMLYEGFYDVLRRNSQLASSIMETLLSQIKQYYLPQQDLLPPLKLEGCIMAQGDQIFLQEPLAHLLCCIQHCLAWYKSTVHLCKGAEDEEEEEDVGFEQNFEEMLESVTRRMIKSELEDFELDKSADFSPSSGVGVKNNIYAIQVMGICEVLIEYNFKIGNFSKNKFEDVLGLFTCYNKLSEILKEKAGKNKSTLGNRIARSFLSMGFVSTLLTALFRDNAQSHEESLAVLRSSTEFMRYAVSVALQKVQQLEEMGQTDGPDGQNPEKMFQNLCKITRVLLWRYTSIPTAVEESGKKKGKSISLLCLEGLLRIFNTMQQLYAARIPQFLQALDITDGDAEEADINVTEKAAFQIRQFQRSLVNQLSSAEDDFNSKETQLLITILSTLSKLLDPGSQQFLQFLTWTVKICKENALEDLSCCKGLLTLLFSLHVLYKSPVSLLRELAQDIHACLGDIDQDVEIESRSHFAIVNVKTAAPTVCLLVLGQADKVLEEVDWLIKRLTILGSDTSEDSTQASNQTQALEKGVILQLGTLLTVFHELVQTALPAGSCVDSLLRSLSKTYAILTSLIKHYIQACRSTSNTVPGRLEKLVKLSGSHLTPQCYSFITYVQNIHSESLSFAEEKKKKKKEDETAVVSTVMAKVLRDTKPIPNLIFAIEQYEKFLIHLSKKSKVNLMQYMKLSTSRDFRINASMLDSVLQEQNTEDAENEPDNNQSGTAEQPDENQEPQKKRRRKK
Regarding B2, the binding result in assay [2] is “no binding (tested: 1 µM)”.
